Literature values in patent publication US11160875B2, “Therapeutic nanofiber hydrogels for local treatment of brain-related diseases” (THE JOHNS HOPKINS UNIVERSITY, priority 2015, dated 2021).
At least one compound was matched to its structure with a doubt left.

Tested on: malignant gliomas
Settings: patients, radiotherapy and temozolomide; radiotherapy alone 10.4%; cited from earlier work

Cn1nnc2c(C(N)=O)ncn2c1=O [temozolomide]
survival rate at 2 years: 26.5%
